Screening data, single-dose tests

Chains of the proteins cited; added tags and fusions are not shown. Residues count along the entry.
UniProt Q8IDJ8, 1-583: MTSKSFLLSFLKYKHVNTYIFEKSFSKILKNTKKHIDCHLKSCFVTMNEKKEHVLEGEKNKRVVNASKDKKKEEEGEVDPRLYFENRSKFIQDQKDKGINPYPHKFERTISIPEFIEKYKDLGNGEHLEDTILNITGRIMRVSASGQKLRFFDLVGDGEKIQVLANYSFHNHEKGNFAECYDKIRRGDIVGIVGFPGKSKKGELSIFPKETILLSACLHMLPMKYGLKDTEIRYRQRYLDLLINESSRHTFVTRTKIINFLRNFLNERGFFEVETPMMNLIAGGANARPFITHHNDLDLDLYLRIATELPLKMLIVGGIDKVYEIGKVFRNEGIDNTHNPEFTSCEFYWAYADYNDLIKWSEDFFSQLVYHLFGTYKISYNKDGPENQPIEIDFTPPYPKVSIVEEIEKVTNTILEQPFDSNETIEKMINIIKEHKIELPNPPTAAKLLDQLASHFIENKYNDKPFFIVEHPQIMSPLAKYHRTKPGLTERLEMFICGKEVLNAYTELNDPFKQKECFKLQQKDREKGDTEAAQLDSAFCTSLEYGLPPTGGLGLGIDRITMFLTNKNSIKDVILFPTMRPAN

Measurements from “University of Dundee, Small-Polar-MMV Screening Library” (2021), ChEMBL document CHEMBL3988442.

The filed quantity is “Percent Effect” (%).
How 0% and 100% were set is not recorded. Most values in the screen are low, and negative values occur.
Compounds were drawn at random from those tested, without regard to their results.

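Lysine-tRNA ligase, Plasmodium falciparum 3D7 (UniProt Q8IDJ8). Enzyme assay of the cytosolic lysyl-tRNA synthetase in 384-well plates, read by luminescence. Compounds at 30 µM. Higher reads as stronger inhibition, judged from the few compounds that gave an IC50. Of about 69,000 compounds tested this way, about 49 (0.071%) reached 50% or more in at least one test.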

Compound	effect
CC(C)(C)OC(=O)NCC1CCCCN1Cc1ccncc1 (stereo not shown)	2.481
Cc1cc(NCC2(O)CCOCC2)nc2ccccc12	-4.079
O=C(NCc1cc(F)ccc1F)Nc1ccn(CC(F)F)n1	2.683
N#CCCN(CC1CCCO1)C(=O)c1ccc(C#N)cc1 (stereo not shown)	0.8479
Cc1ccccc1CN1CCC(CNc2ncnc3c2CCNCC3)C1 (stereo not shown)	-2.896
O=c1[nH]c(N2CCCCC2)nc2c1CCN(Cc1cccnc1)C2	4.266
COc1ccc(N2CCN(Cc3noc(CC(C)C)n3)C(C)C2=O)cc1 (stereo not shown)	-0.9652
CCCc1noc(CCC(=O)N2CCCC2c2cccs2)n1 (stereo not shown)	-0.5656
CC(C(=O)N(Cc1ccccc1)CC(F)(F)F)S(C)(=O)=O (stereo not shown)	2.259
Cn1ccnc1COc1ccc(CSc2nnnn2C)cc1	0.3753
Cc1ccc(C)c(-n2ccc3nc(N4CCCC4)ncc3c2=O)c1	0.2915
O=C1CCCN1Cc1ncn2c1CN(Cc1cccs1)CCC2	-0.3948
CN1CCCN(c2cnn(Cc3ccc(C(C)(C)C)cc3)c(=O)c2)CC1	0.9938
COCCN1CCCn2c(nc(Cn3cncn3)cc2=O)C1	6.346
CCOCCn1nc(C)cc1C(=O)N(C)Cc1cccc2ncccc12	0.1317
CCCS(=O)(=O)N1C[C@@H]2CC[C@H](C1)N(Cc1cscn1)C2=O	-0.2777
COCCN(Cc1ccc(OC)nc1)Cc1cccs1	0.2208
CC(C)c1nc(C2CCCN(C(=O)CCCn3ccnc3)C2)no1 (stereo not shown)	0.08852
Cn1nc2c(cc1=O)CN(Cc1nc(-c3ccsc3)no1)CC2	0.6908
O=S(=O)(NCCN1CC=CC1)c1cncc(Cl)c1	0.497
Cc1nn(C)c(Cl)c1C1CCCN1Cc1ccc(C(N)=O)cc1 (stereo not shown)	1.013
O=C1CN(C(=O)C2CN(c3ccccc3)CCO2)CCN1 (stereo not shown)	-0.3842
CCc1ncnc(N2CCOCC2CCO)c1F (stereo not shown)	-2.308
CC(=O)c1c(F)cccc1NC1CCN(S(=O)(=O)C2CC2)CC1	-1.203
Cc1cccc(CN2CCC(NCC3CNc4cc(C)nn4C3)CC2)c1 (stereo not shown)	4.861
CC(=O)N1CCC[C@H]1C(=O)N(C)CCCOc1ccccc1	0.2219
c1ccc2sc(N3CCCC(Cn4cncn4)C3)nc2c1 (stereo not shown)	-3.601
CCN1CCN(c2ccc(F)cc2C(C)NCc2nc(C)no2)CC1 (stereo not shown)	-0.3003
CCNC(=O)[C@@H]1CCCN1[C@@H](C(=O)NC)C1CC1	5.32
CNc1cncc(C2CCCN2C(=O)c2ccc3nc(C)[nH]c3c2)n1 (stereo not shown)	0.4693
Cc1c(C(=O)NCCCC(N)=O)sc2ccc(F)cc12	0.4662
COc1cccc(-n2cc(CN(C)Cc3ccnc(C(C)C)n3)cn2)c1	-0.08875
O=C1N(Cc2cccnc2)C[C@H]2CN(C3CCOCC3)CCN12	8.173
CC(C)CCN(C(=O)c1cccc(NC(N)=O)c1)C1CC1	0.1439
N#Cc1cccnc1N[C@@H]1c2ccccc2C[C@@H]1O	4.799
CN(C)C(C(=O)N1CC(c2ccccn2)C1)c1cccc(F)c1 (stereo not shown)	1.595
NC1CCc2c(ccc(=O)n2CC2CC2)C1 (stereo not shown)	-1.308
CCOC(C)c1noc(CN(C)C(=O)C2C(C)(C)C2(C)C)n1 (stereo not shown)	-4.223
COCCN1CCN(CC(O)c2ccc(C(F)(F)F)cc2)CC1 (stereo not shown)	6.352
Cc1nc[nH]c1CN(Cc1ccccc1)Cc1nccs1	1.6
CCN(CC)C(CNC(=O)c1ccc(S(C)(=O)=O)cc1)c1ccco1 (stereo not shown)	2.878
O=c1c(Cc2ccccc2)c(O)ccn1Cc1cccs1	-1.445
O=C(CCN1CCCC1=O)NCc1cccnc1Oc1ccccc1	0.263
Cn1cnnc1C1CCCN(C(=O)NCCCn2cccn2)C1 (stereo not shown)	1.909
CCOCCOc1ccccc1C(=O)N1CCCC(c2ncc[nH]2)C1 (stereo not shown)	0.08114
Cc1ccc(F)c(NC(=O)NCCCn2nc3ccccn3c2=O)c1	1.8
Cc1nn(C)c(Cl)c1C1CCCN1CC(=O)N1CCCCC1 (stereo not shown)	-5.594
CCOc1cc(C(=O)N2CCCC2)cc2occc12	2.932
O=C(C1CCN(Cc2nc(-c3ccco3)no2)CC1)N1CCCC1	-0.5335
COCCN1CCN(Cc2cnc(C)nc2)CC1	-1.237
CN1CCC2(CC1)CCN(C(=O)c1onc3ccccc13)C2	7.651
COc1cc(CNC(=O)Nc2nncs2)ccc1O	2.399
COc1cccc(CC(=O)N2CCCC2c2nc(C)c(F)c(O)n2)c1 (stereo not shown)	0.8833
CN(C)C(=O)CO[C@@H]1CC[C@H]2[C@H]1OCCN2C(=O)C1CCOCC1	8.779
NC(=O)c1cnc(NC2CCN(C(=O)C3CC3)CC2)c(Cl)c1	0.7313
Cc1nn(C)c(Cl)c1C1CCCN1C(=O)c1ccc2c(c1)COC2 (stereo not shown)	-1.723
Cc1ccc(-c2ncc(C(=O)NCCNC(=O)C(C)C)s2)c(C)c1	4.07
c1cncc(CN2CCn3c(Cn4cncn4)cnc3C2)c1	0.9404
CCc1c(C)nc(N)nc1NCCSCc1[nH]cnc1C	-1.477
CCOCC1CN(C(=O)Cc2cccs2)Cc2ccnn2C1 (stereo not shown)	-1.486
CCOC(=O)CNc1nc(COC)nc2c1cnn2C	-1.896
CCOc1ccc(C(=O)N2CCC(Oc3ccccc3)(C(=O)O)CC2)o1	0.3801
Cn1ccc(CN2CCC(c3ccccc3)CC2)cc1=O	0.313
CCC(=O)N1CCN(c2ncnc3cc4c(cc23)OCCO4)CC1	0.3378
CC[C@H]1CN2CC[C@H]1C[C@@H]2CNC(=O)Nc1cc(OC)cc(OC)c1	4.66
CC(C)CC(O)C1CCN(Cc2cnc(-c3cccs3)nc2)CC1 (stereo not shown)	1.835
CCS(=O)(=O)CCN1CCC(N(C)Cc2ncc(C)o2)C1 (stereo not shown)	-1.783
CC(C)=CCN1CCN(CCCOc2ccccc2)[C@H]2CS(=O)(=O)C[C@H]21	7.562
COc1cc(F)ccc1C(C(=O)O)N1CCN(C2CCCCC2)CC1 (stereo not shown)	4.629
CCNC(=O)[C@@H]1C[C@H](N)CN1C(=O)c1cccc(CCC(C)(C)O)c1	3.989
CC(C)Cc1nc(CSC2CCCN(c3cnn(C)c3)C2=O)no1 (stereo not shown)	1.463
Cc1cnc(N2C(=O)CSC2c2ccc(F)cc2)s1 (stereo not shown)	0.2286
Cc1nnsc1-c1nnc2sc(C(C)C)nn12	3.935
COc1nn(C)c2c1CCCN(C(=O)c1c[nH]cn1)C2	2.499
CCN(Cc1ccc2c(c1)OCO2)S(=O)(=O)N(C)C(C)C	6.017
COc1c(CNC2CCc3c(Cl)cccc32)c(C)nn1C (stereo not shown)	0.4894
OCCn1nccc1C1CCN(CCOc2ccccc2)CC1	-2.5
CC(=O)N1CCC(NC(=O)c2ccc3c(c2O)OC(C)(C)C3)CC1	1.47
N#Cc1cccc(S(=O)(=O)N2CCCCC2CCN2CCCC2)c1 (stereo not shown)	0.9982
c1ccc(CN2CCCC(Cn3cncn3)C2)nc1 (stereo not shown)	-2.661
CN(C)C(=O)CN1CCC2(CC1)CC(=O)c1c(ccc3ccccc13)O2	1.288
CNC(=O)[C@@H]1C[C@@H](n2cc(-c3ccc(Cl)cc3)nn2)CN1	-1.351
CCN(CC)C(=O)[C@@H]1C[C@H](NC(=O)c2ccn(C(C)(C)C)c2)CN1C	5.82
O=C(O)CCCNC(=O)N1CCc2c([nH]c3ccc(Cl)cc23)C1	3.006
Cn1c(C(=O)N2CCC(C3OCCO3)CC2)c(Cl)c2ccccc21	6.965
C[S+]([O-])c1nncn1CC(=O)c1ccc(Cl)c(Cl)c1 (stereo not shown)	2.479
COc1cc(C2SCC(=O)Nc3[nH]ncc32)c(OC)c2c1OCO2 (stereo not shown)	-0.2275
Cc1cccc(CN2C[C@@H](C)[C@@]3(CCN(CC(=O)N(C)C)C3=O)C2)c1	1.495
CN(CC(=O)N1CCOCC(CO)C1)Cc1ccc(F)cc1 (stereo not shown)	4.616
Cc1cc(C2CCCN(CC(=O)N3CCCc4ccccc43)C2)n[nH]1 (stereo not shown)	0.2236

8 of the entries, repeated:

Compound	effect
COCCN(Cc1ccc(OC)nc1)Cc1cccs1	0.2208
Cc1ccccc1CN1CCC(CNc2ncnc3c2CCNCC3)C1 (stereo not shown)	-2.896
Cc1nn(C)c(Cl)c1C1CCCN1C(=O)c1ccc2c(c1)COC2 (stereo not shown)	-1.723
COc1cc(CNC(=O)Nc2nncs2)ccc1O	2.399
CCc1ncnc(N2CCOCC2CCO)c1F (stereo not shown)	-2.308
COc1cccc(CC(=O)N2CCCC2c2nc(C)c(F)c(O)n2)c1 (stereo not shown)	0.8833
O=S(=O)(NCCN1CC=CC1)c1cncc(Cl)c1	0.497
CCNC(=O)[C@@H]1CCCN1[C@@H](C(=O)NC)C1CC1	5.32